The other results are listed elsewhere or left out.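 How the source made its calls: active = dose-dependent thermal stabilisation significant by F-test of dose-response against flat model at 10% FDR; inactive = not significant.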
Compound: Nc1nc2c(ncn2[C@@H]2O[C@H](COP(=O)(O)OP(=O)(O)OP(=O)(O)O)[C@@H](O)[C@H]2O)c(=O)[nH]1
Test: dose-dependent thermal stabilisation call (2D-TPP, DLPTP, 10% FDR) (binary (1 = stabilised)); higher = stabilised by the compound
Details: system: Jurkat gel-filtered lysate; concentration range 1-500 µM

By UniProt entry, the sequences of proteins in these tests, tags left out. Where a name states a change or a piece, a line headed by the entry shows the natural chain unless it says otherwise.
UniProt P20042, whole entry: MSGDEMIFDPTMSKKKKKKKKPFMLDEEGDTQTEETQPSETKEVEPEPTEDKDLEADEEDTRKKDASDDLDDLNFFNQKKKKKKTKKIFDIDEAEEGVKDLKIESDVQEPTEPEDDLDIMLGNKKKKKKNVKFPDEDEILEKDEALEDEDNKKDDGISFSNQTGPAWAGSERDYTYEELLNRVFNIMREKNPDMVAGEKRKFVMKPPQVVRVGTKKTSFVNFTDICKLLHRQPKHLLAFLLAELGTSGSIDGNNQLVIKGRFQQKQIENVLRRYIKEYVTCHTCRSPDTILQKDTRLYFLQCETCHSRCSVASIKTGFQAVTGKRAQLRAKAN
UniProt Q9Y3D6: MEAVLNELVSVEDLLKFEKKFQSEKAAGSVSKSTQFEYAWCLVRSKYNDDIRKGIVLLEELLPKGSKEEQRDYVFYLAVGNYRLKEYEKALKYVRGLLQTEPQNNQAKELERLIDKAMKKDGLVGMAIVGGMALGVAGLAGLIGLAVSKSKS
UniProt Q8NDI1: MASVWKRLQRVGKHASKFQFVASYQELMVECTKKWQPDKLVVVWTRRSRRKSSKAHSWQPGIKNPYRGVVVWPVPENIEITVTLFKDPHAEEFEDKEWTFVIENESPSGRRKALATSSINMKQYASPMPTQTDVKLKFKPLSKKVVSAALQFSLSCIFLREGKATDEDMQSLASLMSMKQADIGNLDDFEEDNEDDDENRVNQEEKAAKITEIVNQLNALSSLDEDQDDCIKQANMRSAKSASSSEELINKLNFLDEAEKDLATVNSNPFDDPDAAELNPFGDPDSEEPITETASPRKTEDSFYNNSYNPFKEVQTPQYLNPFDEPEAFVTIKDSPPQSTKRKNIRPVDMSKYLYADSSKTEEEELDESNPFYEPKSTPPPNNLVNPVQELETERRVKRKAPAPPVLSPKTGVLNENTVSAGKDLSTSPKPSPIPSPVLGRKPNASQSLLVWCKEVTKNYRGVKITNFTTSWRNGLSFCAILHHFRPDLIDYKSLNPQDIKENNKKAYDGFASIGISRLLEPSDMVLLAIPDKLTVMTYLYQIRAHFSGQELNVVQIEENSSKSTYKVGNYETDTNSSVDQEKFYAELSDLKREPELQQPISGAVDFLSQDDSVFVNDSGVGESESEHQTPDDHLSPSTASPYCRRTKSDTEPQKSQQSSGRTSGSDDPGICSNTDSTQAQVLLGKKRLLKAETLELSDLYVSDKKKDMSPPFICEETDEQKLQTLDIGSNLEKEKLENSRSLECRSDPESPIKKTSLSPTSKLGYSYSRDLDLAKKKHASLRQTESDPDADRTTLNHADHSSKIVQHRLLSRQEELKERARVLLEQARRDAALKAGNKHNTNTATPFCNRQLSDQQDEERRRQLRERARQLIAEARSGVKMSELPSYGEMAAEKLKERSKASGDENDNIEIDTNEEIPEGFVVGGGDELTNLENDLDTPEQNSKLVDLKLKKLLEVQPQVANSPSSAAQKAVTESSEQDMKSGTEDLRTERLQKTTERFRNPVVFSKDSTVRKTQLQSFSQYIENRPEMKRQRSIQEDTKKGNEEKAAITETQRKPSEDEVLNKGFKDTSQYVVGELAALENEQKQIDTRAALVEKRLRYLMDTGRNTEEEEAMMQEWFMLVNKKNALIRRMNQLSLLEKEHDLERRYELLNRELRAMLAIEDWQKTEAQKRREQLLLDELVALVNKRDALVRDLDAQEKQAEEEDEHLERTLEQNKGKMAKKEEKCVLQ
UniProt Q15024, whole entry: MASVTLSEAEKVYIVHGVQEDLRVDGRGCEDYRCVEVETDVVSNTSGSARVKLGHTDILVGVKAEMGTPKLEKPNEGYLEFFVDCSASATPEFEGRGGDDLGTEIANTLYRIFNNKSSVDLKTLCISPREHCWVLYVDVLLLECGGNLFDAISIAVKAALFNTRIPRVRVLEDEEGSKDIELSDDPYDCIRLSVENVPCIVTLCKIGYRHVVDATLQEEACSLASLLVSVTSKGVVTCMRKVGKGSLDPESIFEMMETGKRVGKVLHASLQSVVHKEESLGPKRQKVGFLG
UniProt Q96CN4: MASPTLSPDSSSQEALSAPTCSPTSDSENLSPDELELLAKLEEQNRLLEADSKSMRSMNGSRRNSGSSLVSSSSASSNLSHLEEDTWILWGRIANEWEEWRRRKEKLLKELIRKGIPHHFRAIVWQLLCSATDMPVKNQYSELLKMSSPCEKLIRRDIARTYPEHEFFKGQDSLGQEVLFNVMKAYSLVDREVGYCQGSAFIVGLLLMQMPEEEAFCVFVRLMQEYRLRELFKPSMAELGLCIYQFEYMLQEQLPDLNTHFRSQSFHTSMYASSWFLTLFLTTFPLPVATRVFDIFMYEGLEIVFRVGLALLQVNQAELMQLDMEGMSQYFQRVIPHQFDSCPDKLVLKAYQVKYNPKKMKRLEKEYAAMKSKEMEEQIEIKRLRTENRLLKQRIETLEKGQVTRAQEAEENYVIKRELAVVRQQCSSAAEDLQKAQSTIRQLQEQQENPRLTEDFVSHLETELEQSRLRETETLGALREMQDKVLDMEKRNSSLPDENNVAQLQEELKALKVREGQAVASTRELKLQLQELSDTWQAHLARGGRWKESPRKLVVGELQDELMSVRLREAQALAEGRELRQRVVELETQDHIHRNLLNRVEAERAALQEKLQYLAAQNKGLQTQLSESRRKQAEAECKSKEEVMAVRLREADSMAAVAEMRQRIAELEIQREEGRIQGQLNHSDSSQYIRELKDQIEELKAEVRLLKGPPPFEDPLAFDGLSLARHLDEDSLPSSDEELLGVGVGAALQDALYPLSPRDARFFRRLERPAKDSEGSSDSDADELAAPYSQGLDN
UniProt O60739, whole entry: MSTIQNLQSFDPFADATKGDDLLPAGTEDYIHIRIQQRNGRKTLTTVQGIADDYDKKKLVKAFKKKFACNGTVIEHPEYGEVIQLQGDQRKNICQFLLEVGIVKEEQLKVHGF
UniProt O43427: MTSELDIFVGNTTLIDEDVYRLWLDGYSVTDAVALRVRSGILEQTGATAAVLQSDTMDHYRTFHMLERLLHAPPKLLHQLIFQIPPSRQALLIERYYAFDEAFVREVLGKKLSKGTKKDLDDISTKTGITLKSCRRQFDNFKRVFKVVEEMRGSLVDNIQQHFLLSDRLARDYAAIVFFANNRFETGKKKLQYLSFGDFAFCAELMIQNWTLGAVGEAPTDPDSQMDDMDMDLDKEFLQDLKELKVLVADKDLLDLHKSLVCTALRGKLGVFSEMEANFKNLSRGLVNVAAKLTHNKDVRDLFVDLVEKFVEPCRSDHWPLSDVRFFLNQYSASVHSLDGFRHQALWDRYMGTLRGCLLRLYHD
UniProt Q15029: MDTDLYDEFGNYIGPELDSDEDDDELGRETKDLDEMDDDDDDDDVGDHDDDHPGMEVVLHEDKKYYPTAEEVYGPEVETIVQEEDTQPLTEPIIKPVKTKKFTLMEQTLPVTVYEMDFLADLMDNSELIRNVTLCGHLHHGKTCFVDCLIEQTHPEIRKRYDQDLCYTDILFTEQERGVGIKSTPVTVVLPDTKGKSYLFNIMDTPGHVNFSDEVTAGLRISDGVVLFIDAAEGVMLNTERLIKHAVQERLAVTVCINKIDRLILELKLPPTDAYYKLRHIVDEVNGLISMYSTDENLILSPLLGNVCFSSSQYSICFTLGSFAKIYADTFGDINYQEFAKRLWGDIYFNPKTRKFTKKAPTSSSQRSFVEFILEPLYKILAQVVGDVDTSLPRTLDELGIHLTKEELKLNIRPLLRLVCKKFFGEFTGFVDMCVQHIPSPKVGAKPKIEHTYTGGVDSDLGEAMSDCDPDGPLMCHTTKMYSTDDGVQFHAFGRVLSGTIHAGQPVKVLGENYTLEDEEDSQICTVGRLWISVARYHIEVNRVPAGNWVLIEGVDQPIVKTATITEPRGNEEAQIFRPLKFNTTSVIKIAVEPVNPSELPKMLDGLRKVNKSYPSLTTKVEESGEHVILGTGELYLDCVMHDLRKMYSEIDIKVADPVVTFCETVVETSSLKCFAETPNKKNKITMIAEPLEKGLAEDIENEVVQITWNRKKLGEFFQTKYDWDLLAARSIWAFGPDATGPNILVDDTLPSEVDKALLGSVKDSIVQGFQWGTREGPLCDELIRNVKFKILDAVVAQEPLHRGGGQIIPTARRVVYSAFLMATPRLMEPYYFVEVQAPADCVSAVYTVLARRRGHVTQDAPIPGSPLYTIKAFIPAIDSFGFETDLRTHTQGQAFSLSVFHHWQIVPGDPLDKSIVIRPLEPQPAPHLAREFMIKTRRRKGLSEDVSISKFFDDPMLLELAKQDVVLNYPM
UniProt Q96CP2: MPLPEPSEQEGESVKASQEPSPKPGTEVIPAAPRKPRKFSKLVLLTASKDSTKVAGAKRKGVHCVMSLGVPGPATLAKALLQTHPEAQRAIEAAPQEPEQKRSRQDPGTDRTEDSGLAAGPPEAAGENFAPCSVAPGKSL
UniProt Q15717, whole entry: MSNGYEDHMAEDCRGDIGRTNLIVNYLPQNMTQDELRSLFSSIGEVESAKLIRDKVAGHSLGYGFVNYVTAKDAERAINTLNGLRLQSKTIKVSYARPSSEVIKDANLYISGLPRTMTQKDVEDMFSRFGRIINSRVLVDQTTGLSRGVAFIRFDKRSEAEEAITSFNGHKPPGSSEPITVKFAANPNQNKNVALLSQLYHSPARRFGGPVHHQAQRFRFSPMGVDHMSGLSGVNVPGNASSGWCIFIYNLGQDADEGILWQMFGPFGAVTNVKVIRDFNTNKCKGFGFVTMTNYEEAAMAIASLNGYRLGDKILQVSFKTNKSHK
UniProt P98095: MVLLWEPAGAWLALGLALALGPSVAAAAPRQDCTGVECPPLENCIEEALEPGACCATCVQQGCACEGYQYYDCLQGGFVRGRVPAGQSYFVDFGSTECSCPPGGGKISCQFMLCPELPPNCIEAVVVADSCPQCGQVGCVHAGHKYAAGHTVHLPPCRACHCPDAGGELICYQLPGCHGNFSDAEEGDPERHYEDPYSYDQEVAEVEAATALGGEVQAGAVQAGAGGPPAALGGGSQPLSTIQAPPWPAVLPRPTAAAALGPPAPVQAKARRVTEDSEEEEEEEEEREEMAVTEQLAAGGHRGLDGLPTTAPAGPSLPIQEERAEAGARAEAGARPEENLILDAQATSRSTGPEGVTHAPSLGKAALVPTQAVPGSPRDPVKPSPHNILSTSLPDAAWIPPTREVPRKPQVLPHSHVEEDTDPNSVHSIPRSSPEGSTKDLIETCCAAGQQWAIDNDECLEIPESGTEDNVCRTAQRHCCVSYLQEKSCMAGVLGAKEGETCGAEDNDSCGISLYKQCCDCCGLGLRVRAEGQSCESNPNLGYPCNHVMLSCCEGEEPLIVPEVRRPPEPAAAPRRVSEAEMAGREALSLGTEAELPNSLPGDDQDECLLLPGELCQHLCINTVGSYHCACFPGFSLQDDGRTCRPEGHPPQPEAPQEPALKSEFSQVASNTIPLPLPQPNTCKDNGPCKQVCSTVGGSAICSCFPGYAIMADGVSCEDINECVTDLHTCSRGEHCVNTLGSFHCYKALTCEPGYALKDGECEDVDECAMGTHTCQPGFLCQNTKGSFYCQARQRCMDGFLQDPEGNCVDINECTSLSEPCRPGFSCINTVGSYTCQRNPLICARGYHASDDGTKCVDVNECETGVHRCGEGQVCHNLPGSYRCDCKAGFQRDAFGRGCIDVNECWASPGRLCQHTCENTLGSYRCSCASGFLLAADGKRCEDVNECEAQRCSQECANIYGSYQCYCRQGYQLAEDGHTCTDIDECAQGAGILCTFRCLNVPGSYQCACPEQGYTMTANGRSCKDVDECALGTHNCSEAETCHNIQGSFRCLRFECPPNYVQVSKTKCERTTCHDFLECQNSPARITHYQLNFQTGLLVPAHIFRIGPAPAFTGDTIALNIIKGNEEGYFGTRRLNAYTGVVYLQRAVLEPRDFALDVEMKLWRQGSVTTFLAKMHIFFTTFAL
UniProt P57772: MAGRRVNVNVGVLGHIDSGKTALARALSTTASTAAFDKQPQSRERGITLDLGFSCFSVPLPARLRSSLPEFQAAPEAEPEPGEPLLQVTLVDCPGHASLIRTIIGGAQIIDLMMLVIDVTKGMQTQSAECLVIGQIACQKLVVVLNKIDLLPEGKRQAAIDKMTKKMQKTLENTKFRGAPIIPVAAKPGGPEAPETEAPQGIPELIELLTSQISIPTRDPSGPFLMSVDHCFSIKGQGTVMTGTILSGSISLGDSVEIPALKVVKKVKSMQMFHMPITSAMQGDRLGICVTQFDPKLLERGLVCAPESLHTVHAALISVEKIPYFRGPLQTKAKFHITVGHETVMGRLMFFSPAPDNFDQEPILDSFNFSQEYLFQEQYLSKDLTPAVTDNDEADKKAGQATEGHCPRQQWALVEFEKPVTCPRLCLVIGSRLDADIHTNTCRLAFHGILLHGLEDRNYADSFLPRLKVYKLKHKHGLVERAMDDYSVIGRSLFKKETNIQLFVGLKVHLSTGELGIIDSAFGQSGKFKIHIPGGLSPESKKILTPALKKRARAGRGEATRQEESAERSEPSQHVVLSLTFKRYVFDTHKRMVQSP

| Target | dose-dependent thermal stabilisation call |
| --- | --- |
| FUS (UniProt P35637) | inactive: 0 |
| EIF2S2 (UniProt P20042) | inactive: 0 |
| FIS1 (UniProt Q9Y3D6) | inactive: 0 |
| FBXO33 (UniProt Q7Z6M2) | inactive: 0 |
| EHBP1 (UniProt Q8NDI1) | inactive: 0 |
| EXOSC7 (UniProt Q15024) | inactive: 0 |
| ERCC5 (UniProt P28715) | inactive: 0 |
| ERC1 (UniProt Q8IUD2) | inactive: 0 |
| EVI5L (UniProt Q96CN4) | active: 1 |
| FOXK1 (UniProt P85037) | inactive: 0 |
| FBRSL1 (UniProt Q9HCM7) | inactive: 0 |
| EIF1B (UniProt O60739) | inactive: 0 |
| EPRS (UniProt P07814) | inactive: 0 |
| FIBP (UniProt O43427) | active: 1 |
| EFTUD2 (UniProt Q15029) | active: 1 |
| FAM160B1 (UniProt Q5W0V3) | inactive: 0 |
| FNTA (UniProt P49354) | inactive: 0 |
| FLYWCH2 (UniProt Q96CP2) | inactive: 0 |

Three entries drawn at random from the list so far:

| Target | dose-dependent thermal stabilisation call |
| --- | --- |
| FBRSL1 (UniProt Q9HCM7) | inactive: 0 |
| FIBP (UniProt O43427) | active: 1 |
| FBXO33 (UniProt Q7Z6M2) | inactive: 0 |

(list continues)

| Target | dose-dependent thermal stabilisation call |
| --- | --- |
| ELAVL1 (UniProt Q15717) | active: 1 |
| FBXL17 (UniProt Q9UF56) | inactive: 0 |
| ETF1 (UniProt P62495) | inactive: 0 |
| FKBP7 (UniProt Q9Y680) | inactive: 0 |
| FLI1 (UniProt Q01543) | active: 1 |
| FECH (UniProt P22830) | inactive: 0 |
| ENPP4 (UniProt Q9Y6X5) | inactive: 0 |
| EPS15L1 (UniProt Q9UBC2) | inactive: 0 |
| ERBIN (UniProt Q96RT1) | inactive: 0 |
| FBXO38 (UniProt Q6PIJ6) | inactive: 0 |
| EXOC5 (UniProt O00471) | inactive: 0 |
| FOCAD (UniProt Q5VW36) | active: 1 |
| FAF1 (UniProt Q9UNN5) | inactive: 0 |
| FAM126B (UniProt Q8IXS8) | inactive: 0 |
| FBLN2 (UniProt P98095) | inactive: 0 |
| EEFSEC (UniProt P57772) | active: 1 |
| ESPL1 (UniProt Q14674) | inactive: 0 |
| FAM98B (UniProt Q52LJ0) | inactive: 0 |

Source: the supplement of paper PMC7666118
